Experimental data reported in article PMC10858868, “TFIP11 promotes replication fork reversal to preserve genome stability”.
These are yes or no findings as the source states them, for the method shown. In cells and extracts the contact can be indirect. These calls come from enrichment with a bait or labelling near it, and not all partners need be listed. Tags and fused reporters may be left off the sequences shown.

The chains behind the UniProt entries cited, without tags or fusion partners.
UniProt Q9BXW9: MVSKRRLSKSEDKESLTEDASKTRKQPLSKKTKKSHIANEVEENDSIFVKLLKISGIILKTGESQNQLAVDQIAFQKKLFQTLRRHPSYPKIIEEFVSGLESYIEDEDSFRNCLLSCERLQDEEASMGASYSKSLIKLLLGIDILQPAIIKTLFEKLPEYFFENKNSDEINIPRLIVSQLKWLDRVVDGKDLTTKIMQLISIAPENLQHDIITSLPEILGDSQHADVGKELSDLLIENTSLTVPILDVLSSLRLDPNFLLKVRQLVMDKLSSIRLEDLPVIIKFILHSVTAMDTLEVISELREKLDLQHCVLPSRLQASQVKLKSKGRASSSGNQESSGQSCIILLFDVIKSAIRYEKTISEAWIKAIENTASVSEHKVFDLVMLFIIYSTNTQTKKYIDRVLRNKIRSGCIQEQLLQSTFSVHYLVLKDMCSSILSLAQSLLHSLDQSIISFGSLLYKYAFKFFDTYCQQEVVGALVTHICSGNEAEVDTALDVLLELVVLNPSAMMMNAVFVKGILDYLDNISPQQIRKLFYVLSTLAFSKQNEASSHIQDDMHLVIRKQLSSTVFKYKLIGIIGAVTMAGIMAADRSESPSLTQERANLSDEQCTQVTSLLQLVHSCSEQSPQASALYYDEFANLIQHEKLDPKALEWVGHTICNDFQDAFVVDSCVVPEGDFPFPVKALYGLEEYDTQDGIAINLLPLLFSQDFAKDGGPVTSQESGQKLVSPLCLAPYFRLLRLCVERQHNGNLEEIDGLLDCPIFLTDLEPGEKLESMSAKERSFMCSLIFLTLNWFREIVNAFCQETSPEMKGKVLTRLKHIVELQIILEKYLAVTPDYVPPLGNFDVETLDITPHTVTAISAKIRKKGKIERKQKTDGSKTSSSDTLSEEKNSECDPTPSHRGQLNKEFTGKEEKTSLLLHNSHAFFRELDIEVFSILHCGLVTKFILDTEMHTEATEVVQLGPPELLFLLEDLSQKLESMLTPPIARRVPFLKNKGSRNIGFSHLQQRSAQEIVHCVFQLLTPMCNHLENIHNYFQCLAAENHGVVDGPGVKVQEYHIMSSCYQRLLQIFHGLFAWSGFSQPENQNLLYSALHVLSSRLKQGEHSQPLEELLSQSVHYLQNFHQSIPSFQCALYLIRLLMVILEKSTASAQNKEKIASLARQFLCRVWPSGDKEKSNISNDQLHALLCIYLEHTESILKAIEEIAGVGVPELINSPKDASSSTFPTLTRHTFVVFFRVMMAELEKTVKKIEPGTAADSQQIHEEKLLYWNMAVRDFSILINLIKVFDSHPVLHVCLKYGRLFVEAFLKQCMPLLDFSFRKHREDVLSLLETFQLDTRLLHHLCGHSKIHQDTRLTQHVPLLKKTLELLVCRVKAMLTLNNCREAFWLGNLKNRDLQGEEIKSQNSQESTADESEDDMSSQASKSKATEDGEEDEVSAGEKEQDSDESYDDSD
UniProt P54132: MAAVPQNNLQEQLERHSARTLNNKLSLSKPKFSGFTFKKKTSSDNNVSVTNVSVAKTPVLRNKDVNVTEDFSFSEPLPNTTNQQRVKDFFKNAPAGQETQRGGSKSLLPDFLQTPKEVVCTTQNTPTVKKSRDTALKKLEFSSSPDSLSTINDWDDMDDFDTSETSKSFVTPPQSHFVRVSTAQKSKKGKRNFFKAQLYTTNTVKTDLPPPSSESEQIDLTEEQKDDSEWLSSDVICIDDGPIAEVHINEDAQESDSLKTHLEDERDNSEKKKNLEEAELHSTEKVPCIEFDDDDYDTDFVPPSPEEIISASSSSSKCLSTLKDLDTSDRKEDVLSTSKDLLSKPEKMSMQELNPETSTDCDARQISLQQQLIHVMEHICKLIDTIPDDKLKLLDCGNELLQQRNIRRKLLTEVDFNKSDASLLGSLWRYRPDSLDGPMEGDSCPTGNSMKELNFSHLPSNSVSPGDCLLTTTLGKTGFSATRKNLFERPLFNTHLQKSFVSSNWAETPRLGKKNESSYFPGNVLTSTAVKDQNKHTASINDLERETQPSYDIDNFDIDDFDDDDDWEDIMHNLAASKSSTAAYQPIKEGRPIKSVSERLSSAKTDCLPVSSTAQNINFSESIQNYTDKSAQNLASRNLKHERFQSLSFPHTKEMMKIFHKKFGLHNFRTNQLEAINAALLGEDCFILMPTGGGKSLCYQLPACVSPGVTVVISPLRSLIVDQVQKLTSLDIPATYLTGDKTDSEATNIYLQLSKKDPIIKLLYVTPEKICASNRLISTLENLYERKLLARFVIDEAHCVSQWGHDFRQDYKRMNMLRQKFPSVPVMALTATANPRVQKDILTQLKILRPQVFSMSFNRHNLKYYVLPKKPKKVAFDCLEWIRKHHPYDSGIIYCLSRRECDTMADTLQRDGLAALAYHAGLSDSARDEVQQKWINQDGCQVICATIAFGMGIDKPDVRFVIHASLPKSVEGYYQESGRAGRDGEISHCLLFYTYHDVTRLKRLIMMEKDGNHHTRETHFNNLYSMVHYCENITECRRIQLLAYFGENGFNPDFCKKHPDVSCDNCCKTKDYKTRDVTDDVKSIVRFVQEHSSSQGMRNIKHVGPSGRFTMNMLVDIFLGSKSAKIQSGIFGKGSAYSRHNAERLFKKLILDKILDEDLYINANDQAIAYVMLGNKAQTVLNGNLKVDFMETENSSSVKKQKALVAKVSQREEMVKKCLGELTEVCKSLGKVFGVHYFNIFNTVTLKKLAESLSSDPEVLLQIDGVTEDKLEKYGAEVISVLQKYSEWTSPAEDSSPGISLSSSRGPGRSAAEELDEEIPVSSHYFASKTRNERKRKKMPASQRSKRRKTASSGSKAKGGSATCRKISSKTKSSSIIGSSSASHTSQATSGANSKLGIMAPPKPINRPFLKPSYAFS
UniProt Q5UIP0: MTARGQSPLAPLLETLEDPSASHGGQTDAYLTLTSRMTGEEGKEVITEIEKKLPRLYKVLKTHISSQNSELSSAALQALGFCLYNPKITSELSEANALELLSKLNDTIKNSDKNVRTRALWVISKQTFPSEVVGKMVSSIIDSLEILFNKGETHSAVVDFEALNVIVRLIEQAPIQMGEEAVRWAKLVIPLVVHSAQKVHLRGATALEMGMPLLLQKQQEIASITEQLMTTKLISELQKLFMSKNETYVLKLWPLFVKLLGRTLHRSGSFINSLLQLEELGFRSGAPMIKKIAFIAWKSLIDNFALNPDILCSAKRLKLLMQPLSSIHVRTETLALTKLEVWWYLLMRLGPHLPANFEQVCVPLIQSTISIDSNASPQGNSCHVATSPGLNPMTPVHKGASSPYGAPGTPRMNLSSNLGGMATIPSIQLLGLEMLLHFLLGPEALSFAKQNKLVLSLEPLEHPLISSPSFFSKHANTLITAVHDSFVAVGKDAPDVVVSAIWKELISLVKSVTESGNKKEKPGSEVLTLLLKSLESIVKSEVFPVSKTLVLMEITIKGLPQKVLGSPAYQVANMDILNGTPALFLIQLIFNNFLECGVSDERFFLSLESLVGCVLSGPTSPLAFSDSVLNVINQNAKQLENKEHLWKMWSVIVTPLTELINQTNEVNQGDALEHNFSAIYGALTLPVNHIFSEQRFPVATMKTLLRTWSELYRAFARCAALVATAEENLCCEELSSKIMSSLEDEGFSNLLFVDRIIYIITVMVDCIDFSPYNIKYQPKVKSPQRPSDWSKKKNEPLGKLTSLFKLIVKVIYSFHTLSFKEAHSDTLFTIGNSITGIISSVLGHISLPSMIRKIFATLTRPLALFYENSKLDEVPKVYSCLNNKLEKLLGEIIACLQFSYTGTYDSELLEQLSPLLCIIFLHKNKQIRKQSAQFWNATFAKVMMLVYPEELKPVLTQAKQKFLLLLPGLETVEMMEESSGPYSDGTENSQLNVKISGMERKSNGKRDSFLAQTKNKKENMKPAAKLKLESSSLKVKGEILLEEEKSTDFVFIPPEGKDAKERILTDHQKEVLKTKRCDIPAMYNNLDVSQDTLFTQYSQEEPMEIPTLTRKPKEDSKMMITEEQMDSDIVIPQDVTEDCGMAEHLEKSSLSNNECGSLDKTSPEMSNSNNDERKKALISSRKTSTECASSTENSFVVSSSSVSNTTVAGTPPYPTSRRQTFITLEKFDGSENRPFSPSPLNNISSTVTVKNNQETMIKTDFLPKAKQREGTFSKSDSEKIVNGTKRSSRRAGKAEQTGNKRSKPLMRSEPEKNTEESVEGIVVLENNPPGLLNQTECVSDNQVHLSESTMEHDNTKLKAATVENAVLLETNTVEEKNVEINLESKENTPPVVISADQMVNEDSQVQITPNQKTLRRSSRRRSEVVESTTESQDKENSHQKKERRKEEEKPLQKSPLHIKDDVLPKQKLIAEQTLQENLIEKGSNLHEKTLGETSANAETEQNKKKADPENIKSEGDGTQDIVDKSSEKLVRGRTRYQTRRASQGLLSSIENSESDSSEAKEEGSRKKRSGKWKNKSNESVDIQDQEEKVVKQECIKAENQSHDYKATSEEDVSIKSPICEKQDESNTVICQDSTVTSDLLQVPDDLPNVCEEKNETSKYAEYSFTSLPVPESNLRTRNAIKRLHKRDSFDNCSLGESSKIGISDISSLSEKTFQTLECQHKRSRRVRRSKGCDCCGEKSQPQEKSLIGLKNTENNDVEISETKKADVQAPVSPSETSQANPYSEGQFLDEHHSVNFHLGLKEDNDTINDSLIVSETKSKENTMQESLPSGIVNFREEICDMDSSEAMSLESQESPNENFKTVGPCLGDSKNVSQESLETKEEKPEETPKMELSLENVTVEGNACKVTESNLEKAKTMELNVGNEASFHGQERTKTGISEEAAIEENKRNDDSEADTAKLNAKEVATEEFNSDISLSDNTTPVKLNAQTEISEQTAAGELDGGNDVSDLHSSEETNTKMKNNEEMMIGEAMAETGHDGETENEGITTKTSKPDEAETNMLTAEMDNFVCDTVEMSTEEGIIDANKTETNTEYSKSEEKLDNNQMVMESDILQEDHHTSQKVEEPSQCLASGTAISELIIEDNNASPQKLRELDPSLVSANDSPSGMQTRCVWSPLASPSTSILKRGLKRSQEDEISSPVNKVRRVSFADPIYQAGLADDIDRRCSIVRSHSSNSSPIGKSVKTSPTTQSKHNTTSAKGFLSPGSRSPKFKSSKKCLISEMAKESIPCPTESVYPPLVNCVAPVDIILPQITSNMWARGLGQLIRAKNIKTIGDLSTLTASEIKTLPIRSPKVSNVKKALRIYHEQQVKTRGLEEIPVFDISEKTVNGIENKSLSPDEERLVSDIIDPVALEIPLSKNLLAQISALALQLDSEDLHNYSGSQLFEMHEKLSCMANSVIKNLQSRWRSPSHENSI

T1: SFB-tagged wild-type TFIP11 (UniProt Q9UBB9)
T1 sequence: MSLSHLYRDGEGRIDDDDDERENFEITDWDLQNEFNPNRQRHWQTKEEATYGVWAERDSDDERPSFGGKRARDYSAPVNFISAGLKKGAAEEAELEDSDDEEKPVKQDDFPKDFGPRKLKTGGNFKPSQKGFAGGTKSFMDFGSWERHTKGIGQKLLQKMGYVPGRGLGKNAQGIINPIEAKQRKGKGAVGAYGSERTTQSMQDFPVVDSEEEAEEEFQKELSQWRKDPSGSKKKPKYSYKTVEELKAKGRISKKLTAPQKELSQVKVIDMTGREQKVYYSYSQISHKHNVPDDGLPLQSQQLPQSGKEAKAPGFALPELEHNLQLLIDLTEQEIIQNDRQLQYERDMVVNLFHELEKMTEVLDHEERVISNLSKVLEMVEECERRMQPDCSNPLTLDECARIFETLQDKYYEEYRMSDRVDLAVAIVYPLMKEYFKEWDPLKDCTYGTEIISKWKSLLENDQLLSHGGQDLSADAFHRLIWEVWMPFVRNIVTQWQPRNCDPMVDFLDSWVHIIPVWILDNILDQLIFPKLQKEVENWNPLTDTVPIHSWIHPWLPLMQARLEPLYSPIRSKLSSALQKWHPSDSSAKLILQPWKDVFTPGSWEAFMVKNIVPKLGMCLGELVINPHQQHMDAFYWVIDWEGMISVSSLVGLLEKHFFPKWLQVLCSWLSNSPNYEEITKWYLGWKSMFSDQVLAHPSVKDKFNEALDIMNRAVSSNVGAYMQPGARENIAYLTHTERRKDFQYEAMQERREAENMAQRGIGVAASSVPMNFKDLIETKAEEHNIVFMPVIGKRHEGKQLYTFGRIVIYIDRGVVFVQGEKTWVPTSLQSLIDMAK

T2: SFB-tagged wild-type TFIP11, Q9UBB9
T2 chain: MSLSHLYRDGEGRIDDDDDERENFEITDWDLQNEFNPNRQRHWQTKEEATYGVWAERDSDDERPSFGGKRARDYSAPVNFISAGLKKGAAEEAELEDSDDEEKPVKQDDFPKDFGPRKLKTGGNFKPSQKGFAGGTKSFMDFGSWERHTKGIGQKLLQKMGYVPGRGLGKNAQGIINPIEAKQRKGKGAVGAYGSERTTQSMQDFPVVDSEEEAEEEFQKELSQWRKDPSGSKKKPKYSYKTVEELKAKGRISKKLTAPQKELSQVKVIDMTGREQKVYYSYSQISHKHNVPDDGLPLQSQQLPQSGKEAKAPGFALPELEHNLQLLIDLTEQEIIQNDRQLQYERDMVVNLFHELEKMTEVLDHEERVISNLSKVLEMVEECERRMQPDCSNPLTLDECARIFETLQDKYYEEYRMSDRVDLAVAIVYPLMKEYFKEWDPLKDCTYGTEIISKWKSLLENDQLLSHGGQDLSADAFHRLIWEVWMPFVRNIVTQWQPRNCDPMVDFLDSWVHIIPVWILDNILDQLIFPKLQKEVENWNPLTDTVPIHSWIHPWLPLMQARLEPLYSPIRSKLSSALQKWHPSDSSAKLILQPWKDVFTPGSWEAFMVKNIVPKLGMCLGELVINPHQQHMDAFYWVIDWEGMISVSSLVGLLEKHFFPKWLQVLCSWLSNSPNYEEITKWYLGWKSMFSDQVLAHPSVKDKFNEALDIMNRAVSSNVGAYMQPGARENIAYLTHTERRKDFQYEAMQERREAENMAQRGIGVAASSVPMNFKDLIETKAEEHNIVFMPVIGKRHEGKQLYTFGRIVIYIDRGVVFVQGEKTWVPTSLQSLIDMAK


Columns and labels:
[1] = molecular target: T1, SFB-tagged wild-type TFIP11; experiment: affinity purification with mass spectrometry; tandem affinity purification of SFB-TFIP11 from stable HEK293T cells: NETN buffer (20 mM Tris-HCl pH 8.0, 100 mM NaCl, 1 mM EDTA, 0.5% Nonidet P-40) with Benzonase, streptavidin beads 4 °C 2 h, biotin elution, S-protein beads 4 °C 2 h, SDS-PAGE …
[2] = molecular target: T2, SFB-tagged wild-type TFIP11, Q9UBB9; experiment: as above; conditions: remark: other sources report otherwise

| Molecule | binding [1] | binding [2] |
| --- | --- | --- |
| FANCD2 (from UniProt Q9BXW9 1-1451) | binds |  |
| BLM helicase (Bloom syndrome gene product) (from UniProt P54132 1-1417) | binds |  |
| RIF1 (from UniProt Q5UIP0 1-2472) | binds |  |
| topoisomerase IIIalpha (TOP3A) (protein, UniProt Q13472 1-1001) MIFPVARYALRWLRRPEDRAFSRAAMEMALRGVRKVLCVAEKNDAAKGIADLLSNGRMRRREGLSKFNKIYEFDYHLYGQNVTMVMTSVSGHLLAHDFQMQFRKWQSCNPLVLFEAEIEKYCPENFVDIKKTLERETRQCQALVIWTDCDREGENIGFEIIHVCKAVKPNLQVLRARFSEITPHAVRTACENLTEPDQRVSDAVDVRQELDLRIGAAFTRFQTLRLQRIFPEVLAEQLISYGSCQFPTLGFVVERFKAIQAFVPEIFHRIKVTHDHKDGIVEFNWKRHRLFNHTACLVLYQLCVEDPMATVVEVRSKPKSKWRPQALDTVELEKLASRKLRINAKETMRIAEKLYTQGYISYPRTETNIFPRDLNLTVLVEQQTPDPRWGAFAQSILERGGPTPRNGNKSDQAHPPIHPTKYTNNLQGDEQRLYEFIVRHFLACCSQDAQGQETTVEIDIAQERFVAHGLMILARNYLDVYPYDHWSDKILPVYEQGSHFQPSTVEMVDGETSPPKLLTEADLIALMEKHGIGTDATHAEHIETIKARMYVGLTPDKRFLPGHLGMGLVEGYDSMGYEMSKPDLRAELEADLKLICDGKKDKFVVLRQQVQKYKQVFIEAVAKAKKLDEALAQYFGNGTELAQQEDIYPAMPEPIRKCPQCNKDMVLKTKKNGGFYLSCMGFPECRSAVWLPDSVLEASRDSSVCPVCQPHPVYRLKLKFKRGSLPPTMPLEFVCCIGGCDDTLREILDLRFSGGPPRASQPSGRLQANQSLNRMDNSQHPQPADSRQTGSSKALAQTLPPPTAAGESNSVTCNCGQEAVLLTVRKEGPNRGRQFFKCNGGSCNFFLWADSPNPGAGGPPALAYRPLGASLGCPPGPGIHLGGFGNPGDGSGSGTSCLCSQPSVTRTVQKDGPNKGRQFHTCAKPREQQCGFFQWVDENTAPGTSGAPSWTGDRGRTLESEARSKRPRASSSDMGSTAKKPRKCSLCHQPGHTRPFCPQNR | binds |  |
| RMI1 (BLAP75) (protein, UniProt Q9H9A7 1-625) MNVTSIALRAETWLLAAWHVKVPPMWLEACINWIQEENNNVNLSQAQMNKQVFEQWLLTDLRDLEHPLLPDGILEIPKGELNGFYALQINSLVDVSQPAYSQIQKLRGKNTTNDLVTAEAQVTPKPWEAKPSRMLMLQLTDGIVQIQGMEYQPIPILHSDLPPGTKILIYGNISFRLGVLLLKPENVKVLGGEVDALLEEYAQEKVLARLIGEPDLVVSVIPNNSNENIPRVTDVLDPALGPSDEELLASLDENDELTANNDTSSERCFTTGSSSNTIPTRQSSFEPEFVISPRPKEEPSNLSIHVMDGELDDFSLEEALLLEETVQKEQMETKELQPLTFNRNADRSIERFSHNPNTTNNFSLTCKNGNNNWSEKNVSEQMTNEDKSFGCPSVRDQNRSIFSVHCNVPLAHDFTNKEKNLETDNKIKQTSSSDSHSLNNKILNREVVNYVQKRNSQISNENDCNLQSCSLRSSENSINLSIAMDLYSPPFVYLSVLMASKPKEVTTVKVKAFIVTLTGNLSSSGGIWSITAKVSDGTAYLDVDFVDEILTSLIGFSVPEMKQSKKDPLQYQKFLEGLQKCQRDLIDLCCLMTISFNPSLSKAMVLALQDVNMEHLENLKKRLNK | binds |  |
| RMI2 (BLAP18) (protein, UniProt Q96E14 1-147) MAAAADSFSGGPAGVRLPRSPPLKVLAEQLRRDAEGGPGAWRLSRAAAGRGPLDLAAVWMQGRVVMADRGEARLRDPSGDFSVRGLERVPRGRPCLVPGKYVMVMGVVQACSPEPCLQAVKMTDLSDNPIHESMWELEVEDLHRNIP | binds |  |
| FANCI, Q9NVI1 1-1328 (protein) MDQKILSLAAEKTADKLQEFLQTLREGDLTNLLQNQAVKGKVAGALLRAIFKGSPCSEEAGTLRRRKIYTCCIQLVESGDLQKEIASEIIGLLMLEAHHFPGPLLVELANEFISAVREGSLVNGKSLELLPIILTALATKKENLAYGKGVLSGEECKKQLINTLCSGRWDQQYVIQLTSMFKDVPLTAEEVEFVVEKALSMFSKMNLQEIPPLVYQLLVLSSKGSRKSVLEGIIAFFSALDKQHNEEQSGDELLDVVTVPSGELRHVEGTIILHIVFAIKLDYELGRELVKHLKVGQQGDSNNNLSPFSIALLLSVTRIQRFQDQVLDLLKTSVVKSFKDLQLLQGSKFLQNLVPHRSYVSTMILEVVKNSVHSWDHVTQGLVELGFILMDSYGPKKVLDGKTIETSPSLSRMPNQHACKLGANILLETFKIHEMIRQEILEQVLNRVVTRASSPISHFLDLLSNIVMYAPLVLQSCSSKVTEAFDYLSFLPLQTVQRLLKAVQPLLKVSMSMRDCLILVLRKAMFANQLDARKSAVAGFLLLLKNFKVLGSLSSSQCSQSLSVSQVHVDVHSHYNSVANETFCLEIMDSLRRCLSQQADVRLMLYEGFYDVLRRNSQLANSVMQTLLSQLKQFYEPKPDLLPPLKLEACILTQGDKISLQEPLDYLLCCIQHCLAWYKNTVIPLQQGEEEEEEEEAFYEDLDDILESITNRMIKSELEDFELDKSADFSQSTSIGIKNNICAFLVMGVCEVLIEYNFSISSFSKNRFEDILSLFMCYKKLSDILNEKAGKAKTKMANKTSDSLLSMKFVSSLLTALFRDSIQSHQESLSVLRSSNEFMRYAVNVALQKVQQLKETGHVSGPDGQNPEKIFQNLCDITRVLLWRYTSIPTSVEESGKKEKGKSISLLCLEGLQKIFSAVQQFYQPKIQQFLRALDVTDKEGEEREDADVSVTQRTAFQIRQFQRSLLNLLSSQEEDFNSKEALLLVTVLTSLSKLLEPSSPQFVQMLSWTSKICKENSREDALFCKSLMNLLFSLHVSYKSPVILLRDLSQDIHGHLGDIDQDVEVEKTNHFAIVNLRTAAPTVCLLVLSQAEKVLEEVDWLITKLKGQVSQETLSEEASSQATLPNQPVEKAIIMQLGTLLTFFHELVQTALPSGSCVDTLLKDLCKMYTTLTALVRYYLQVCQSSGGIPKNMEKLVKLSGSHLTPLCYSFISYVQNKSKSLNYTGEKKEKPAAVATAMARVLRETKPIPNLIFAIEQYEKFLIHLSKKSKVNLMQHMKLSTSRDFKIKGNILDMVLREDGEDENEEGTASEHGGQNKEPAKKKRKK |  | binds |
